Source: patent publication US11235066B2 (THE REGENTS OF THE UNIVERSITY OF MICHIGAN, priority 2015, dated 2022)

Test: general procedure: Fmoc solid-phase peptide synthesis; Rink amide MBHA resin; HBTU, HOBt
Conditions: whole synthesis, analytical HPLC, scale ~0.06 mmol

LTTHYKL-GGGSK
final HPLC purity: >95%
